# In publication doi:10.1101/2024.10.16.618570 (bioRxiv, 2024):
# Where two headings read alike, the source gives them in different places. These are yes or no findings as the source states them, for the method shown. Some results given as binding are weak or reduced against the parent protein; the word gives no strength. Sequences can lack the tags named with a protein.
# Key:
# [1] = target: BAK (BCL-2 homologous antagonist/killer), endogenous in mouse liver mitochondria (mouse (endogenous in mouse liver mitochondria)) (UniProt O08734); assay: native gel or EMSA
# [2] = target: BAK (BCL-2 homologous antagonist/killer), endogenous in mouse liver mitochondria (mouse (endogenous in mouse liver mitochondria)) (UniProt O08734); assay: native gel or EMSA; remark: listed apart in the source
binder,measurement,setting,value
"BAK (BCL-2 homologous antagonist/killer), endogenous in mouse liver mitochondria (natural protein, UniProt O08734 1-209, looked up) MASGQGPGPPKVGCDESPSPSEQQVAQDTEEVFRSYVFYLHQQEQETQGAAAPANPEMDNLPLEPNSILGQVGRQLALIGDDINRRYDTEFQNLLEQLQPTAGNAYELFTKIASSLFKSGISWGRVVALLGFGYRLALYVYQRGLTGFLGQVTCFLADIILHHYIARWIAQRGGWVAALNFRRDPILTVMVIFGVVLLGQFVVHRFFRS",binding,[1],no binding (condition: without cBID)
same,binding,[2],binds
